This test concerns the target T1, keratin 18 (human (endogenous in SMMC-7721)) (UniProt P05783).
T1 sequence: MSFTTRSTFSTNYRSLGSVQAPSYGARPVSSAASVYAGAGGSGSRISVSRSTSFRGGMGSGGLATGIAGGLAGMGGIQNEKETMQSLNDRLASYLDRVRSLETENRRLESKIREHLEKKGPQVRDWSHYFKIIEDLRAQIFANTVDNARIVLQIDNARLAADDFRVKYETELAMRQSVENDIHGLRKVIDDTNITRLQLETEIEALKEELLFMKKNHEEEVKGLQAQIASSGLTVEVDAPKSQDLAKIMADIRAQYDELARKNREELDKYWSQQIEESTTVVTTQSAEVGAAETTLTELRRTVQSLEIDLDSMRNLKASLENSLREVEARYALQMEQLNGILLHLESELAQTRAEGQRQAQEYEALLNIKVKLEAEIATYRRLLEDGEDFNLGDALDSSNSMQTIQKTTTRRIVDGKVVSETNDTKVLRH
Description: co-IP; SMMC-7721 lysate in keratin lysis buffer with 1 X binding buffer (40 mM KCl, 3 mM MgCl2, 10 mM HEPES pH 7.8, 1 mM DTT), 4°C; precipitated with anti-CK18 antibody and an antibody against IgG; Western blots for PKCε and CK18; control lanes without RNA, other lanes with increasing C/EBPβ 3′UTR RNA or β-tubulin RNA.

By UniProt entry, the sequences of proteins in these tests, tags left out.
UniProt Q02156: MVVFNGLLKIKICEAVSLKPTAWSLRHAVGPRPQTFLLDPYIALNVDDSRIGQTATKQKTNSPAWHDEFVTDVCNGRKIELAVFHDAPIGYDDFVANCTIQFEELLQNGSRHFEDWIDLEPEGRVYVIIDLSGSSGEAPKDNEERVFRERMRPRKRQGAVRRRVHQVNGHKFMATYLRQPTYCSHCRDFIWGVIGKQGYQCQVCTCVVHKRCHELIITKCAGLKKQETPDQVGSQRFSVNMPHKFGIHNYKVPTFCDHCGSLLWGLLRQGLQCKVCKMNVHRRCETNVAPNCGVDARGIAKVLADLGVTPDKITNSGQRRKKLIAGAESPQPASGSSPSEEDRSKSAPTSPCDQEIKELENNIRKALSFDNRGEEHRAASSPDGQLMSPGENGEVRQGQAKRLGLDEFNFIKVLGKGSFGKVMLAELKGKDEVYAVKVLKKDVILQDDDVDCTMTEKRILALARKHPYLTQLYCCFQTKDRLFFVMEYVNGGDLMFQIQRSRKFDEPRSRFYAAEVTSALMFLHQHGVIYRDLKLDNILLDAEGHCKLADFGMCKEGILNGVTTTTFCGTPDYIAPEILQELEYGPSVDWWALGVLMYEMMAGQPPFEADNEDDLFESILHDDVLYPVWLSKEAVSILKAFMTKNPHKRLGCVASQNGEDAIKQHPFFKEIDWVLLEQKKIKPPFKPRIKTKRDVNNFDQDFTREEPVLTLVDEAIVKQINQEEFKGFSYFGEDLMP

No constants are given. Whether binding was seen depends on the method and setting. Binding seen in cells or lysates may run through a third protein. Some results given as binding are weak or reduced against the parent protein; the word gives no strength.

Consider “protein kinase Cε (from UniProt Q02156 1-737) (enzyme)”, for which the binding result is “binds”.

For the origin of these results see publication PMC3026020.
